Laboratory results: PubChem BioAssay AID1224828 (NIAID, 2016)

Purpose: 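Regulators linking TLR4 signalling to p65 nuclear translocation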 (primary screen)
System: mouse RAW264.7 G9 macrophage reporter cells (GFP-p65, Tnf promoter-mCherry)
Reagents: siRNA pool against mouse genes, 100 nM
Time to read-out: 2 days siRNA transfection, then 40 min LPS before fixation
Conditions: LPS (Salmonella minnesota R595) at 10 ng/ml
Read-out: 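Microscopy ratio of nuclear to perinuclear-ring GFP-p65 signal, scaled to the plate median; gene score is the average of two replicate robust z-scores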
Scale: p65 translocation robust z-score: higher = more nuclear NF-kappaB p65 after LPS than the plate median; nuclear/cytoplasmic p65 ratio: higher = more nuclear NF-kappaB p65
Active means: 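Active if robust z is above 3.3 (negative regulators) or below -1.56, the Tlr4 control median (positive regulators); activity score 50 or more; control wells not called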
Calls: active = hit (p65 shift raised or lowered); inactive = no clear change
This is an unselected part of about 17,000 reagents. 762 of all reagents (4.5%) were called active. 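Active calls include both raised and lowered p65 entry, mostly lowered; wells with fewer than 50 cells lack a z-score.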 Raw values are not corrected between plates.

What did the screen give for Eif3i (eukaryotic translation initiation factor 3, subunit I) [SID315471293]?
p65 translocation robust z-score: -0.98; nuclear/cytoplasmic p65 ratio, rep 1: 1.4; nuclear/cytoplasmic p65 ratio, rep 2: 1.18; low cell count flag: enough cells to score; activity call: inactive

How did the screen score Map1lc3b (microtubule-associated protein 1 light chain 3 beta) [SID315473027]?
p65 translocation robust z-score: -1.87; nuclear/cytoplasmic p65 ratio, rep 1: 1.45; nuclear/cytoplasmic p65 ratio, rep 2: 1.26; low cell count flag: enough cells to score; activity call: active

Which result is listed for Mbd4 (methyl-CpG binding domain protein 4) [SID315467849]?
p65 translocation robust z-score: -0.27; nuclear/cytoplasmic p65 ratio, rep 1: 1.36; nuclear/cytoplasmic p65 ratio, rep 2: 1.35; low cell count flag: enough cells to score; activity call: inactive

What is on record for Ccna2 (cyclin A2) [SID315465812]?
p65 translocation robust z-score: -1.08; nuclear/cytoplasmic p65 ratio, rep 1: 1.05; nuclear/cytoplasmic p65 ratio, rep 2: 1.24; low cell count flag: enough cells to score; activity call: inactive

What did the screen give for Hk3 (hexokinase 3) [SID315477713]?
nuclear/cytoplasmic p65 ratio, rep 1: 2.4; nuclear/cytoplasmic p65 ratio, rep 2: 1.5; low cell count flag: fewer than 50 cells per well; well left out of scoring; activity call: inactive

What did the screen give for C130026L21Rik (RIKEN cDNA C130026L21 gene) [SID315481574]?
p65 translocation robust z-score: 0.33; nuclear/cytoplasmic p65 ratio, rep 1: 1.36; nuclear/cytoplasmic p65 ratio, rep 2: 1.57; low cell count flag: enough cells to score; activity call: inactive

What is on record for Uap1 (UDP-N-acetylglucosamine pyrophosphorylase 1) [SID315476628]?
nuclear/cytoplasmic p65 ratio, rep 1: 1.46; nuclear/cytoplasmic p65 ratio, rep 2: 1.14; low cell count flag: fewer than 50 cells per well; well left out of scoring; activity call: inactive

What is on record for 2310057J18Rik (RIKEN cDNA 2310057J18 gene) [SID315473188]?
p65 translocation robust z-score: -1.31; nuclear/cytoplasmic p65 ratio, rep 1: 1.29; nuclear/cytoplasmic p65 ratio, rep 2: 1.15; low cell count flag: enough cells to score; activity call: inactive

What did the screen give for Ift38 (intraflagellar transport 38) [SID315475374]?
nuclear/cytoplasmic p65 ratio, rep 1: 1.13; nuclear/cytoplasmic p65 ratio, rep 2: 1.51; low cell count flag: fewer than 50 cells per well; well left out of scoring; activity call: inactive

Which result is listed for Mx2 (MX dynamin-like GTPase 2) [SID315468042]?
p65 translocation robust z-score: 0.22; nuclear/cytoplasmic p65 ratio, rep 1: 1.52; nuclear/cytoplasmic p65 ratio, rep 2: 1.33; low cell count flag: enough cells to score; activity call: inactive

For Nek11 (NIMA (never in mitosis gene a)-related expressed kinase 11) [SID315477537], what was measured?
p65 translocation robust z-score: -1.1; nuclear/cytoplasmic p65 ratio, rep 1: 1.59; nuclear/cytoplasmic p65 ratio, rep 2: 1.24; low cell count flag: enough cells to score; activity call: inactive

Which result is listed for Tdpoz3 (TD and POZ domain containing 3) [SID315481888]?
nuclear/cytoplasmic p65 ratio, rep 1: 1.37; nuclear/cytoplasmic p65 ratio, rep 2: 1.22; low cell count flag: fewer than 50 cells per well; well left out of scoring; activity call: inactive
